Reference: PMC6639331

Chains of the proteins cited; added tags and fusions are not shown. A line that says so, or that is headed by a name, gives the form on record, which may keep a tag or linker.
CAF40 module (NOT1:CAF40) (Homo sapiens), one chain, as listed by the source, chain 2 of 2: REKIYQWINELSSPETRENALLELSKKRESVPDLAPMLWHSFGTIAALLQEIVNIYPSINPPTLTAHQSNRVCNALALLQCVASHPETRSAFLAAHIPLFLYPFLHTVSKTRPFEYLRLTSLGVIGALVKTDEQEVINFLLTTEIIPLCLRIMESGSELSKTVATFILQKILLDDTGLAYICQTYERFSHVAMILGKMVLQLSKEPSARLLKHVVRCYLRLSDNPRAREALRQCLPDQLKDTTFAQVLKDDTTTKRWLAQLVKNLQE
CAF40 module (NOT1:CAF40) (Homo sapiens), one chain, as listed by the source, chain 1 of 2: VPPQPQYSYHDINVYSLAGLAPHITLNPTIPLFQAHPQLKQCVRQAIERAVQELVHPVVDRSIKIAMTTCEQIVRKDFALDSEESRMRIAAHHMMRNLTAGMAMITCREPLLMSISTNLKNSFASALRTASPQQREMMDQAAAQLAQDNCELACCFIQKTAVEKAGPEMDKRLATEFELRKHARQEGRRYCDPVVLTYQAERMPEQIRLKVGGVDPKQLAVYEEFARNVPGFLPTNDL
NOT module (NOT1:NOT2:NOT3) (Homo sapiens), one chain, as listed by the source, chain 2 of 3: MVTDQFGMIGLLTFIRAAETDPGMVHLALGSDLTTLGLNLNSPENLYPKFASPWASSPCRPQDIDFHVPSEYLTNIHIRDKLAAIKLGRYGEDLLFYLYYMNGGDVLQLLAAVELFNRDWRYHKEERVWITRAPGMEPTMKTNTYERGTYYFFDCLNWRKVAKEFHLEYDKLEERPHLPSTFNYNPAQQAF
CCR4a:CAF1 (nuclease module) (Homo sapiens), one chain, as listed by the source, chain 2 of 2: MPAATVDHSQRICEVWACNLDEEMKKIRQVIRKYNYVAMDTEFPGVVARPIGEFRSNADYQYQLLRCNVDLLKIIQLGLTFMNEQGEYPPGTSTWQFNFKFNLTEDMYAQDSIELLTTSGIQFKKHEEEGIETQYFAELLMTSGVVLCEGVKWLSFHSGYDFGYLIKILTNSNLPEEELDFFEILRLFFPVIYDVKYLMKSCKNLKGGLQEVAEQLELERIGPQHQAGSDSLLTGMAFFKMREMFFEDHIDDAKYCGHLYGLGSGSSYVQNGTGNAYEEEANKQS
NOT module (NOT1:NOT2:NOT3) (Homo sapiens), one chain, as listed by the source, chain 1 of 3: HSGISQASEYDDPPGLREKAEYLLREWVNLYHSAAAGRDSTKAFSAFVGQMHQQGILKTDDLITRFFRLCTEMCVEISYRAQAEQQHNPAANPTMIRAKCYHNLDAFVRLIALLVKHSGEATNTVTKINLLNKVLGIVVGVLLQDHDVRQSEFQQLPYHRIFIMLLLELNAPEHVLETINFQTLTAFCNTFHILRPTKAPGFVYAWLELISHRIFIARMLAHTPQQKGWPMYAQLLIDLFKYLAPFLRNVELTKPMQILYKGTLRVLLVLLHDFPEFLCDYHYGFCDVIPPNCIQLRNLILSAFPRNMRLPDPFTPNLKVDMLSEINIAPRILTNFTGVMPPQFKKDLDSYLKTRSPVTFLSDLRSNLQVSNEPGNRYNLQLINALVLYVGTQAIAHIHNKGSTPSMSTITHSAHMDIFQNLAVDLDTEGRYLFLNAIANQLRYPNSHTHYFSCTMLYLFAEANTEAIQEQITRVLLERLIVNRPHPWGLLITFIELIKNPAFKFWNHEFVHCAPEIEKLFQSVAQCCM
NOT module (NOT1:NOT2:NOT3) (Homo sapiens), one chain, as listed by the source, chain 3 of 3: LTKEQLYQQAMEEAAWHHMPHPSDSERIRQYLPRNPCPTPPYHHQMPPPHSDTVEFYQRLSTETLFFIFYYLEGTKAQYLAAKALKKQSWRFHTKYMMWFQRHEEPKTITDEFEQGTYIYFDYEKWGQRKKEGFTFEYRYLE
CCR4a:CAF1 (nuclease module) (Homo sapiens), one chain, as listed by the source, chain 1 of 2: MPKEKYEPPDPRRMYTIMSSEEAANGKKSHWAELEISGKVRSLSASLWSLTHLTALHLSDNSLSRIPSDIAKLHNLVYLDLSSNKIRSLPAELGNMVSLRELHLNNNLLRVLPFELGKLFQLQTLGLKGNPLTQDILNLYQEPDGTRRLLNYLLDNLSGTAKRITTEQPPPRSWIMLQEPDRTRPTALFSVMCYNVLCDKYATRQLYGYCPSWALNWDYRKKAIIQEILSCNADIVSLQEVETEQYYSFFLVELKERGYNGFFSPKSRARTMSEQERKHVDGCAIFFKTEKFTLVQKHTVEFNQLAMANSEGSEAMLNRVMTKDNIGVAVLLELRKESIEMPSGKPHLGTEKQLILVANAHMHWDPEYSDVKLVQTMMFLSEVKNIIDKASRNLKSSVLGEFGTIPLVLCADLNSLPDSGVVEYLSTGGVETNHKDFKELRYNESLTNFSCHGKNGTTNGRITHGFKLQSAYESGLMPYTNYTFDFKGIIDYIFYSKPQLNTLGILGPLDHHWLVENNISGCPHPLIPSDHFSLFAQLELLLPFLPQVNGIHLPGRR

Tests used:
[1] = tested on: CAF40 module (NOT1:CAF40) (Homo sapiens); test: EMSA; settings: 1 uM protein, EMSA: 20 mM Tris/HCl pH 7.5, 10 mM NaCl, 2 mM MgCl2, 0.1% BSA, 0.1% Orange G, 3% Ficoll 400, 100 nM RNA, 10% native PAGE in TBE pH 8.3, temperature not stated, recombinant protein, protein details: MBP (NOT1) and His6 (CAF40) removed, label: 5' 6-FAM
[2] = tested on: CCR4a:CAF1 (nuclease module) (Homo sapiens); test: EMSA; settings: EMSA: 20 mM Tris/HCl pH 7.5, 10 mM NaCl, 2 mM MgCl2, 0.1% BSA, 0.1% Orange G, 3% Ficoll 400, 100 nM RNA, 10% native PAGE in TBE pH 8.3, temperature not stated, recombinant protein, protein details: His6 and His6-SUMO removed, label: 5' 6-FAM
[3] = tested on: NOT module (NOT1:NOT2:NOT3) (Homo sapiens); test: EMSA; settings: EMSA: 20 mM Tris/HCl pH 7.5, 10 mM NaCl, 2 mM MgCl2, 0.1% BSA, 0.1% Orange G, 3% Ficoll 400, 100 nM RNA, 10% native PAGE in TBE pH 8.3, temperature not stated, recombinant protein, label: 5' 6-FAM
[4] = tested on: CAF40 module (NOT1:CAF40) (Homo sapiens); test: EMSA competition; settings: 100 uM NOT1:CAF40 + 200 uM MBP-Bam CBM WT (Bam 13-36), RNA binding efficiently prevented; EMSA: 20 mM Tris/HCl pH 7.5, 10 mM NaCl, 2 mM MgCl2, 0.1% BSA, 0.1% Orange G, 3% Ficoll 400; 100 nM RNA; 10% native PAGE in TBE pH 8.3; temperature not stated; recombinant protein; protein details: MBP (NOT1) and His6 (CAF40) removed; label: 5' 6-FAM

Sequence | binding result ([1]; only NOT10:NOT11 among the modules bound) | binding result ([1]; binding detectable only at 25 uM) | binding result ([2]; 1 uM protein) | binding result ([2]; 25 uM protein) | binding result ([3]; 1 uM protein) | binding result ([3]; 25 uM protein) | binding result [4]
CACAUCCAACUUCUCUAAAUAAAAAAAAAAAAAAAAAAAA [13+7-mer-A20] | no binding |  |  |  |  |  | 
UCUAAAUAAAAAAAAAAAAAAAAAAAA [7-mer-A20] |  | no binding | no binding | no binding | no binding | no binding | binds more weakly

For some of these results: Negatives hold for the conditions tested. For some of these results: At least one verdict rests on a figure or table, not on a statement of the authors. For some of these results: Construct, isoform or probe ends are uncertain for at least one entry. For some of these results: A weaker result is weaker than the reference pair of the same experiment.
